Reference: publication PMC3607232
Results are given in words; binding and its absence hold for the method and conditions named. In cells and extracts the contact can be indirect. Some entries that bind do so weakly or less than the wild type.

Sequences of proteins named here, by UniProt entry; tags and fusion partners are left off. Residues count along the entry.
UniProt Q01196: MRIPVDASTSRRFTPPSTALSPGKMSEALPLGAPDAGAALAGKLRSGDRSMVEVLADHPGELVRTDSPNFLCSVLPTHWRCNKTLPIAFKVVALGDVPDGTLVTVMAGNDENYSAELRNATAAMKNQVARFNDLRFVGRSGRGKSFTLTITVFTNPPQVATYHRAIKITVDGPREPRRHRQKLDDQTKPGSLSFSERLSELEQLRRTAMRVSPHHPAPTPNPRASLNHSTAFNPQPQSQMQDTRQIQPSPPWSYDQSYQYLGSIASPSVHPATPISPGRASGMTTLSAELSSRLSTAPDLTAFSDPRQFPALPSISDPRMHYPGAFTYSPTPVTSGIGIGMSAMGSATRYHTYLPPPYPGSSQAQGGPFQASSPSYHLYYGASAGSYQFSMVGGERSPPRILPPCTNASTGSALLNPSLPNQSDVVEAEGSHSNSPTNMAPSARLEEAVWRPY
UniProt Q03164, residues 2719-3969: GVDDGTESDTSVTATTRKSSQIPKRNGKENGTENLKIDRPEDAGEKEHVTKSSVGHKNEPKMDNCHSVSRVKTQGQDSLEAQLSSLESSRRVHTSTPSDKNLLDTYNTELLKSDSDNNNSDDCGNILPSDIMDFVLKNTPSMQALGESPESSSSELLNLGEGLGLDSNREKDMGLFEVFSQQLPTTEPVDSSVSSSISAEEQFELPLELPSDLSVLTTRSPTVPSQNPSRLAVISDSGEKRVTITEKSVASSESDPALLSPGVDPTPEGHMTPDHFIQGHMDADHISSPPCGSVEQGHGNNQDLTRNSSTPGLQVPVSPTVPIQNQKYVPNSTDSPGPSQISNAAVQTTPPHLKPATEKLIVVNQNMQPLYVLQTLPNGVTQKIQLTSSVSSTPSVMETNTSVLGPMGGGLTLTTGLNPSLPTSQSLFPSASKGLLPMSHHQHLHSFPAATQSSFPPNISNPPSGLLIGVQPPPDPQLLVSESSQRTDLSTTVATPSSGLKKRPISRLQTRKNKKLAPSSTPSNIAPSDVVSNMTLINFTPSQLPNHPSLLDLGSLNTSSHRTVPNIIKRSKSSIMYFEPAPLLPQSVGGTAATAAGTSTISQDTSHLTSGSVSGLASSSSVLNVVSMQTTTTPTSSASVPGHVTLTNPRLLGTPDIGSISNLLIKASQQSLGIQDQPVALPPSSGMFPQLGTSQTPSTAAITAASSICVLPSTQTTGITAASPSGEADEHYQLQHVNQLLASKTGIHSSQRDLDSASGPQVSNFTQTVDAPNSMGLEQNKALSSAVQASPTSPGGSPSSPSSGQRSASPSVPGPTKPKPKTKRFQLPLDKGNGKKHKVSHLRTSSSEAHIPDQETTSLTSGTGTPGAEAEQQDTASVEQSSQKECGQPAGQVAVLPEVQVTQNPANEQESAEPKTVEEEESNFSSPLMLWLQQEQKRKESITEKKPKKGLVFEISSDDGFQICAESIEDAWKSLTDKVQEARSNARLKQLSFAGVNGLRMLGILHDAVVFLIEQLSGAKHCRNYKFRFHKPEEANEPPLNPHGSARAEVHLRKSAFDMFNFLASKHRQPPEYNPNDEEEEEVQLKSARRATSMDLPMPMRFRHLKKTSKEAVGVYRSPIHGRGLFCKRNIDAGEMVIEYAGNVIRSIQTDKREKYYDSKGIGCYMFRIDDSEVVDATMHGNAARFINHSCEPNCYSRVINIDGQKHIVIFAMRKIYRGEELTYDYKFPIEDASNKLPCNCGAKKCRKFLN

What was measured:
Experiment in all cases: co-IP; 500 ug RS4;11 or SEM (t(4;11)) nuclear extract in 20 mM Tris-HCl pH 7.5, 20% glycerol, 300 mM KCl, 5 mM EDTA; overnight at 4°C with anti-AF4-N, anti-RUNX1 or anti-MLL-C (rabbit IgG as control); protein A and G Dynabeads; wash at 150 mM KCl; Western blot
[1] = target: T1, wild-type AF4 (human (endogenous in RS4;11, SEM and CCRF-CEM)) (UniProt P51825)
T1 sequence: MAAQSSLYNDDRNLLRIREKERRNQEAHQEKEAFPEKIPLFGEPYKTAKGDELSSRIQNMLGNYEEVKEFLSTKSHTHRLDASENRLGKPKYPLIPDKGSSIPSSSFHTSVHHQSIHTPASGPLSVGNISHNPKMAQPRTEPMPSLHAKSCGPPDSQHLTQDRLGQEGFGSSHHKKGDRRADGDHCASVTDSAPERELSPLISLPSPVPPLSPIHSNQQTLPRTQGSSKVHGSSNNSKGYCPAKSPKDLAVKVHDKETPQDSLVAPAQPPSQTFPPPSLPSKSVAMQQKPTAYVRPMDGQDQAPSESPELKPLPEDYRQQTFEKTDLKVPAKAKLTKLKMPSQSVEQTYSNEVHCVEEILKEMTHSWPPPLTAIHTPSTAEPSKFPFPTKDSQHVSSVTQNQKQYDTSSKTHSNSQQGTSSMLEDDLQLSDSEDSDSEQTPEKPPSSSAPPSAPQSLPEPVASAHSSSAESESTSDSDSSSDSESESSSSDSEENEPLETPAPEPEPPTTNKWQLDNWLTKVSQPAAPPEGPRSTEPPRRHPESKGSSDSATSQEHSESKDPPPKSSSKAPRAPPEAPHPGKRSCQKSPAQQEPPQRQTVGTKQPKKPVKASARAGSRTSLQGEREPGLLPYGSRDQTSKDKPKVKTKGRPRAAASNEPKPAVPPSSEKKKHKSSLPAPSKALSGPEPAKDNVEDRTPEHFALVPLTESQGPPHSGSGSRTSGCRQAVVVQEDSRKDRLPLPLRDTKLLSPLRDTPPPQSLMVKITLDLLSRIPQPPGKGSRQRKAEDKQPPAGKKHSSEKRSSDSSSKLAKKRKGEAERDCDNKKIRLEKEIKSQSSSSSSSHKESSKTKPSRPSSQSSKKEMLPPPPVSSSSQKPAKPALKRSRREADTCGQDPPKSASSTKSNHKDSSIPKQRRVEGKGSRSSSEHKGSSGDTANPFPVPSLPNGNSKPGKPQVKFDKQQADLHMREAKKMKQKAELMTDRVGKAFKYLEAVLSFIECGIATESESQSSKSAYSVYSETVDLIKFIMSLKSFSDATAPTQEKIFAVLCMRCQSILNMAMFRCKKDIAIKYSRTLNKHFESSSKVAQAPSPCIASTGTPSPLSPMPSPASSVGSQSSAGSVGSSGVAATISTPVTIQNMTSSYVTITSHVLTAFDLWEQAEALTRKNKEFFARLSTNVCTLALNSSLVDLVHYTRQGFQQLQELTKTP

[2] = target: RUNX1 (human (endogenous in RS4;11, SEM and CCRF-CEM)) (UniProt Q01196)
[3] = target: MLL-C (human (endogenous in RS4;11, SEM and CCRF-CEM)) (UniProt Q03164)

binding [1] | binding [2] | binding [3] | Substance
binds | binds | – | MLL-C (from UniProt Q03164 2719-3969) (domain or fragment)
binds | – | binds | RUNX1 (from UniProt Q01196 1-453)
